Assay results as given in the supplement of paper PMC4604168 (melanoma cell lines).
This is one part of the list. Repeats are few or missing, and single values can be far off.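 The apoptosis fraction was the count of cleaved-PARP antibody-stained nuclei relative to all DNA-stained nuclei, imaged in 1,536-well plates. Screening doses were set so most cells survived, and baseline and induced cleaved-PARP levels vary greatly across cell lines.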

What was measured:
Test in all cases: cleaved PARP positive nuclei fraction relative to DMSO control; melanoma cells; higher = more apoptosis
Conditions in all cases: library dose: low library concentration; 72 h
WM115 = system: WM115
WM1716 = system: WM1716
WM1745 = system: WM1745
WM3526 = system: WM3526
WM3619 = system: WM3619
WM451Lu = system: WM451Lu

| Structure (SMILES) | cleaved PARP positive nuclei fraction (WM115) [%] | cleaved PARP positive nuclei fraction (WM1716) [%] | cleaved PARP positive nuclei fraction (WM1745) [%] | cleaved PARP positive nuclei fraction (WM3526) [%] | cleaved PARP positive nuclei fraction (WM3619) [%] | cleaved PARP positive nuclei fraction (WM451Lu) [%] |
| --- | --- | --- | --- | --- | --- | --- |
| O=C(Nc1cc(C(F)(F)F)cc(C(F)(F)F)c1)c1cc(Cl)ccc1O + Cn1cc(C2=C(c3cn(C4CCN(Cc5ccccn5)CC4)c4ccccc34)C(=O)NC2=O)c2ccccc21 [Enzastaurin] (first compound 0.016 µM, partner dose 0.8 µM) | 74.5 | 75.7 | 103 | 62.7 | 85.7 | 48.1 |
| Cc1ccc(Nc2nccc(N(C)c3ccc4c(C)n(C)nc4c3)n2)cc1S(N)(=O)=O [Pazopanib] + O=C(Oc1ccc([N+](=O)[O-])cc1)N1CCC(C(O)(c2ccc3c(c2)OCO3)c2ccc3c(c2)OCO3)CC1 [JZL184] (first compound 0.4 µM, partner dose 1 µM) | 95.6 | 50.7 | 99.6 | 91.4 | 95 | 41.3 |
| Cn1cc(C2=C(c3cn(C4CCN(Cc5ccccn5)CC4)c4ccccc34)C(=O)NC2=O)c2ccccc21 [Enzastaurin] + Nc1ncn([C@H]2C[C@H](O)[C@@H](CO)O2)c(=O)n1 [decitabine] (first compound 0.8 µM, partner dose 0.1 µM) | 155 | 77.6 | 104 | 80.3 | 89.4 | 95.6 |
| C[C@]12O[C@H](C[C@]1(O)CO)n1c3ccccc3c3c4c(c5c6ccccc6n2c5c31)CNC4=O [Lestaurtinib] + C[As](C)SC[C@H](NC(=O)CC[C@H](N)C(=O)O)C(=O)NCC(=O)O [Darinaparsin] (first compound 0.004 µM, partner dose 0.4 µM) | 108 | 60.6 | 94.1 | 83 | 113 | 85.3 |
| Cc1cc(SCc2sc(-c3ccc(C(F)(F)F)c(F)c3)nc2C)ccc1OCC(=O)O + O=C(Oc1ccc([N+](=O)[O-])cc1)N1CCC(C(O)(c2ccc3c(c2)OCO3)c2ccc3c(c2)OCO3)CC1 [JZL184] (first compound 2 µM, partner dose 1 µM) | 142 | 98.2 | 106 | 69.4 | 165 | 88.2 |
| CCCCCCCCCCCCCCCCCCOP(=O)([O-])OC1CC[N+](C)(C)CC1 [Perifosine] + N.N.[Cl][Pt][Cl] [cisplatin] (first compound 0.4 µM, partner dose 1.6 µM) | 97.7 | 150 | 82.7 | 22.2 | 100 | 42.8 |
| O=c1[nH]nc(Sc2ncc([N+](=O)[O-])s2)n1-c1ccc2c(c1)OCCO2 + Cn1cc(C2=C(c3cn(C4CCN(Cc5ccccn5)CC4)c4ccccc34)C(=O)NC2=O)c2ccccc21 [Enzastaurin] (first compound 0.2 µM, partner dose 0.8 µM) | 22.1 | 43.6 | 94 | 157 | 93.4 | 79.5 |
| Cn1cc(C2=C(c3cn(C4CCN(Cc5ccccn5)CC4)c4ccccc34)C(=O)NC2=O)c2ccccc21 [Enzastaurin] + O=C1NC(=O)/C(=C/c2ccc(-c3ccc(F)cc3O)o2)S1 [AS252424] (first compound 0.8 µM, partner dose 1 µM) | 131 | 69.1 | 90 | 159 | 80.1 | 34.4 |
| Oc1cc(-c2nc(-c3ccccc3)[nH]c2-c2ccncc2)ccc1Cl + C/C(O)=C(\C#N)C(=O)Nc1cc(Br)ccc1Br [LFM-A13] (first compound 0.2 µM, partner dose 2 µM) | 214 | 50.7 | 111 | 225 | 81.3 | 55.6 |
| O=C(CCCCCCC(=O)Nc1ccccc1)NO [vorinostat] + O=C(Oc1ccc([N+](=O)[O-])cc1)N1CCC(C(O)(c2ccc3c(c2)OCO3)c2ccc3c(c2)OCO3)CC1 [JZL184] (first compound 0.08 µM, partner dose 1 µM) | 150 | 91 | 103 | 83.8 | 77.3 | 257 |
| C[As](C)SC[C@H](NC(=O)CC[C@H](N)C(=O)O)C(=O)NCC(=O)O [Darinaparsin] + N#Cc1c(O)c2c(-c3ccc(-c4ccccc4O)cc3)csc2[nH]c1=O [A769662] (first compound 0.4 µM, partner dose 2 µM) | 92.9 | 72.1 | 107 | 150 | 105 | 81.1 |
| Cn1cc(C2=C(c3cn(C4CCN(Cc5ccccn5)CC4)c4ccccc34)C(=O)NC2=O)c2ccccc21 [Enzastaurin] + c1cc(-c2cnn3cc(-c4ccc(OCCN5CCCCC5)cc4)cnc23)ccn1 [Dorsomorphin] (first compound 0.8 µM, partner dose 0.4 µM) | 47.9 | 89.6 | 122 | 112 | 107 | 57.4 |

Quoted from the listing:
Value for O=c1[nH]nc(Sc2ncc([N+](=O)[O-])s2)n1-c1ccc2c(c1)OCCO2 + Cn1cc(C2=C(c3cn(C4CCN(Cc5ccccn5)CC4)c4ccccc34)C(=O)NC2=O)c2ccccc21 [Enzastaurin] (first compound 0.2 µM, partner dose 0.8 µM) under cleaved PARP positive nuclei fraction (WM451Lu) [%]: 79.5
Value for Oc1cc(-c2nc(-c3ccccc3)[nH]c2-c2ccncc2)ccc1Cl + C/C(O)=C(\C#N)C(=O)Nc1cc(Br)ccc1Br [LFM-A13] (first compound 0.2 µM, partner dose 2 µM) under cleaved PARP positive nuclei fraction (WM3619) [%]: 81.3
